Source: PubChem BioAssay AID1159584 (Peter MacCallum Cancer Centre, 2016)

Purpose: 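Knock-downs that harm CDH1-null cells more than parental MCF10A cells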 (primary screen)
System: human MCF10A breast epithelial cells, parental and CDH1-null
Knock-down reagent: siRNA against human genes
Detection: 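ATP luminescence (CellTiter-Glo) viability per line relative to mean mock wells over all plates, and the ratio of CDH1-null to parental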
Scale: CDH1-null / parental viability ratio: higher = CDH1-null cells survive relatively better than parental
This is one part, drawn at random, of about 18,000 deposited reagents. Not all columns of the deposit are shown. Not given: the amount of reagent, the time to read-out.

no.	target gene	CDH1-null / parental viability ratio
1	TMEM244	0.87
2	LYSMD2	0.75
3	WNK3	1.11
4	RBPJL	0.95
5	CCT5	1.21
6	CLEC1B	0.92
7	FMNL3	1.03
8	TNFAIP1	1.11
9	RBMS1	1.15
10	SUN5	0.71
11	EIF4B	0.95
12	UNKL	0.88
13	FUCA1	1.15
14	C11orf87	1
15	TSPEAR	1.09
16	BABAM2	1.36
17	CFC1	1.15
18	GPR148	0.64
19	SAMTOR	1.1
20	TMEM243	0.86
21	PGK2	1.08
22	MAP3K8	1.2
23	METTL23	1.25
24	B3GNT5	0.84
25	TCF4	0.99
26	PIP4K2C	1.01
27	R3HDML	1.28
28	SYT7	1

A stretch of the results above:
no.	target gene	CDH1-null / parental viability ratio
2	LYSMD2	0.75
3	WNK3	1.11
4	RBPJL	0.95
5	CCT5	1.21
6	CLEC1B	0.92
7	FMNL3	1.03
8	TNFAIP1	1.11
9	RBMS1	1.15

The results go on:
no.	target gene	CDH1-null / parental viability ratio
29	SPANXN3	1.06
30	SIX3	0.88
31	NOL6	1.47
32	ATF7	0.97
33	VBP1	0.96
34	TMCC3	0.91
35	KCNAB1	1.2
36	IL6	1.08
37	LMBR1L	1.1
38	ADGRB1	1.25
39	NGFR	0.98
40	WHRN	1.3
41	THYN1	1.08
42	MB21D2	0.97
43	TAF1C	1.26
44	SLC22A15	1.04
45	MUC1	1.1
46	PKLR	1.05
